Test results reported in the supplement of paper PMC12067093, “Discovery and optimisation of a covalent ligand for TRIM25 and its application to targeted protein ubiquitination” (Chemical Science, 2025).
The other results are listed elsewhere or left out.

Sequences of proteins named here, by UniProt entry; tags and fusion partners are left off. A change or cut given only in a name is not applied to a line headed by its entry.
UniProt Q96T88: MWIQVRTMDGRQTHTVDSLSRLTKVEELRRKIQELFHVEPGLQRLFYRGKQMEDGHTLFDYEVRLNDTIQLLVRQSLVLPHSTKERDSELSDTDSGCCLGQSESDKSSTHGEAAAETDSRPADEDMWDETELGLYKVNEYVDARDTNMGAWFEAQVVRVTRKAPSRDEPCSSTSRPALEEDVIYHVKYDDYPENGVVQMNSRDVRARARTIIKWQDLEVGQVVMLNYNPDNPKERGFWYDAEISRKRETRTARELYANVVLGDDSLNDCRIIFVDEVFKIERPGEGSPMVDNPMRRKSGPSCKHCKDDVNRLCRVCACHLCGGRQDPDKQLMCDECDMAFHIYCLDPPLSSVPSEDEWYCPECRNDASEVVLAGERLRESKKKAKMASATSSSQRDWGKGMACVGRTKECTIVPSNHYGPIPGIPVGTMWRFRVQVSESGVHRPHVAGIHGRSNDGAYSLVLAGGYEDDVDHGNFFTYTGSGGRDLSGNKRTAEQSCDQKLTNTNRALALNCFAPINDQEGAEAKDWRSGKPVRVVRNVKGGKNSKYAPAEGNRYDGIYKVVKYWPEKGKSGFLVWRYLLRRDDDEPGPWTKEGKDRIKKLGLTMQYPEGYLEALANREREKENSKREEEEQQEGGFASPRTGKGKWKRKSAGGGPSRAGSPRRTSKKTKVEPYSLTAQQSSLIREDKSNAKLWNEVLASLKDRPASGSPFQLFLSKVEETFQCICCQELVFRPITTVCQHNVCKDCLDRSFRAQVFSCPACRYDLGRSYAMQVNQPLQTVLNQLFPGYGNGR
UniProt Q9Y3C8: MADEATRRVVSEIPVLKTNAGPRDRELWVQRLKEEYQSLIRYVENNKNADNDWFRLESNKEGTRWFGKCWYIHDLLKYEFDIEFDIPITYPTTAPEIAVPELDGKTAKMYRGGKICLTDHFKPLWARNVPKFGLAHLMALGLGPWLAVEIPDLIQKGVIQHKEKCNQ
UniProt O60287: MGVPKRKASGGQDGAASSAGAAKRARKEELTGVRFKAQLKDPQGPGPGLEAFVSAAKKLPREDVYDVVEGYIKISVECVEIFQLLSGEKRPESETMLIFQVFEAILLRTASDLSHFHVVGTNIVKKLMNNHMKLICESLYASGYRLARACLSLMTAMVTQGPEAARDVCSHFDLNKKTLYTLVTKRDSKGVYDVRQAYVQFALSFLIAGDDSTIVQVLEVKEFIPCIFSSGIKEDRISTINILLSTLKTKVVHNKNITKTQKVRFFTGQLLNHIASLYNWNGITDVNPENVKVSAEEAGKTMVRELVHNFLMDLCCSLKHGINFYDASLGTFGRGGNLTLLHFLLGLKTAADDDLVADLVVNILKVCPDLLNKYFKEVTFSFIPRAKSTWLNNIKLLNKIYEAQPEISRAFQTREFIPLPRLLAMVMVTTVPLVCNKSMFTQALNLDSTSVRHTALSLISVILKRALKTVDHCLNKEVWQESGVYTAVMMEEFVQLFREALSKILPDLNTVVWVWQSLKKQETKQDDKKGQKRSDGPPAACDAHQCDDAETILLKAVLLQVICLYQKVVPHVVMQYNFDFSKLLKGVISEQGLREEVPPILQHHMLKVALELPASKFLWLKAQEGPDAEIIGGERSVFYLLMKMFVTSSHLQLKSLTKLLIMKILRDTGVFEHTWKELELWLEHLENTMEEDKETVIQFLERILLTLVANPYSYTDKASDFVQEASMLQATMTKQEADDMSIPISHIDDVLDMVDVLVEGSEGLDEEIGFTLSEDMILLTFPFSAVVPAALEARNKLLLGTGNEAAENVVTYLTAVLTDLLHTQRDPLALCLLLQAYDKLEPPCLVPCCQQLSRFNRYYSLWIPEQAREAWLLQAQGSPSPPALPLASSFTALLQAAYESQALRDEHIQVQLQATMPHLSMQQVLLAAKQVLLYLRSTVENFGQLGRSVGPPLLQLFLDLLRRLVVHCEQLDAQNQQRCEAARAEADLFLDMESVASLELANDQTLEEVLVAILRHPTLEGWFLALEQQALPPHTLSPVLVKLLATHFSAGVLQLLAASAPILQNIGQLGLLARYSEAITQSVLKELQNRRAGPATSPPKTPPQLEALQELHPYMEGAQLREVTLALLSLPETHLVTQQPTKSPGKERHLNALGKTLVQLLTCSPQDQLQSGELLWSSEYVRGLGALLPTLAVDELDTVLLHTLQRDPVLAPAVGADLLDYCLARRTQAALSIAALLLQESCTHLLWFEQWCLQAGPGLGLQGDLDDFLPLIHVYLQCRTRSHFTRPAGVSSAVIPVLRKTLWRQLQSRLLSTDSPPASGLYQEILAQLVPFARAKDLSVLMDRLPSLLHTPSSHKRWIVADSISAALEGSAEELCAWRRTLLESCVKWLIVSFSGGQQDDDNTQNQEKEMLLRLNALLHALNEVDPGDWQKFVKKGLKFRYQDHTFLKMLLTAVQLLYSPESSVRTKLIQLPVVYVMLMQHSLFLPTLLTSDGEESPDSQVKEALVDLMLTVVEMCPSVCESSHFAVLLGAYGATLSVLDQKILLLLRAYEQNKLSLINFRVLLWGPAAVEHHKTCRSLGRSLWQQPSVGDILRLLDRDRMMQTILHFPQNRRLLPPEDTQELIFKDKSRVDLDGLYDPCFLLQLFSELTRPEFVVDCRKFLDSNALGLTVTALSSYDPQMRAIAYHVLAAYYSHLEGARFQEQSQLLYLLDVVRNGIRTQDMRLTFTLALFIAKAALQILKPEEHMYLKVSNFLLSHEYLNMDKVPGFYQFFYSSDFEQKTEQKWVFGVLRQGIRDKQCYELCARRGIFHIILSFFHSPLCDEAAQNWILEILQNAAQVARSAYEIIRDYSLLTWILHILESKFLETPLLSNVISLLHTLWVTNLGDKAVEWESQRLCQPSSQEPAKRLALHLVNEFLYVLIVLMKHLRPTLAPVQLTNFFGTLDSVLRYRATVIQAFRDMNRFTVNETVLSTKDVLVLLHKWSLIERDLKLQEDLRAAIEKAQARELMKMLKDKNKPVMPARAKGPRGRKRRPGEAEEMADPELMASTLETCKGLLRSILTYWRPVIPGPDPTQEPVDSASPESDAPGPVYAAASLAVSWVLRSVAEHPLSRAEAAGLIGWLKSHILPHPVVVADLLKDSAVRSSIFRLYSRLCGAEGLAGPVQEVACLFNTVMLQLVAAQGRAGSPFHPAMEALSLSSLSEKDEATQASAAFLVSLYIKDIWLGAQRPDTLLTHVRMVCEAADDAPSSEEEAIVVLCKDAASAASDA
UniProt Q70J99: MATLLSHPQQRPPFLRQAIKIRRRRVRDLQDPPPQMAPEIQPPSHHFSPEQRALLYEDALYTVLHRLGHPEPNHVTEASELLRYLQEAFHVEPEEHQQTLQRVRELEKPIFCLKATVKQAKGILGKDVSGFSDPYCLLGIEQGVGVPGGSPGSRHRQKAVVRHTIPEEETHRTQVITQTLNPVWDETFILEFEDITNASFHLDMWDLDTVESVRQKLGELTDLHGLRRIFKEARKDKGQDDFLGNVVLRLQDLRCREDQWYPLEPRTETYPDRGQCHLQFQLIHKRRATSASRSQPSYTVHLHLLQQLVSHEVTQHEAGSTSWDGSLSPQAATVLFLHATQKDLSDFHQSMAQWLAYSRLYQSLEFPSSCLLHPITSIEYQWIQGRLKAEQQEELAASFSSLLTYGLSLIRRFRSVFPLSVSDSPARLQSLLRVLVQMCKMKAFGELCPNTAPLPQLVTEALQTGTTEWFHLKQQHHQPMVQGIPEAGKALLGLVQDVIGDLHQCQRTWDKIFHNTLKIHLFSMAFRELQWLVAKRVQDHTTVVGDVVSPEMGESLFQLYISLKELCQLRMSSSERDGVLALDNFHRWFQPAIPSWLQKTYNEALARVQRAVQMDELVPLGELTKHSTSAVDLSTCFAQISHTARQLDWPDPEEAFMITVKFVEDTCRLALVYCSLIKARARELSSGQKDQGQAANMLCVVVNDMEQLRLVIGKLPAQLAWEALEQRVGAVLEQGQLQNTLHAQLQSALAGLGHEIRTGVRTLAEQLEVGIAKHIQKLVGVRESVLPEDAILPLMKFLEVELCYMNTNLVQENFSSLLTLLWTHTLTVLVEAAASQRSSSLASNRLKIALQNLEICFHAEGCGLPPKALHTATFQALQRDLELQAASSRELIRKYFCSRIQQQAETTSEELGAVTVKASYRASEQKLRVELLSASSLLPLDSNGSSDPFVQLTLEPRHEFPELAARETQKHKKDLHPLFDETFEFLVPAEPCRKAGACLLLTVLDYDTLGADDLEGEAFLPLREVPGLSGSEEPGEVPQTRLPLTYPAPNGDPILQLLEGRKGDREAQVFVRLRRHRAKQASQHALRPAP
UniProt Q16851: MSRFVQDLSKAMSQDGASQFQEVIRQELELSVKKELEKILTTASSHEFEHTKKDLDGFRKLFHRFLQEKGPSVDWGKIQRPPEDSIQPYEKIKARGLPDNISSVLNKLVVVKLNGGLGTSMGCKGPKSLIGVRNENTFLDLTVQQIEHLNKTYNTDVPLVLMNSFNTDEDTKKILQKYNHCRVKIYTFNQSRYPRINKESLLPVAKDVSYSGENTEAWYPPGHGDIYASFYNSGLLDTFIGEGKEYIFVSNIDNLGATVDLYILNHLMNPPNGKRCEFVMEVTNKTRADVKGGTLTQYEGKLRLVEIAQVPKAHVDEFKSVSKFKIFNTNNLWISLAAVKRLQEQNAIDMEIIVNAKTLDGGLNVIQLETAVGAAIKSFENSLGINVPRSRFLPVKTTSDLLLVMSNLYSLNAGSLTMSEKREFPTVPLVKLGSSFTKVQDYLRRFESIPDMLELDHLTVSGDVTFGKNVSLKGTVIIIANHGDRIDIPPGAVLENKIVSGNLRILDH
UniProt P54578: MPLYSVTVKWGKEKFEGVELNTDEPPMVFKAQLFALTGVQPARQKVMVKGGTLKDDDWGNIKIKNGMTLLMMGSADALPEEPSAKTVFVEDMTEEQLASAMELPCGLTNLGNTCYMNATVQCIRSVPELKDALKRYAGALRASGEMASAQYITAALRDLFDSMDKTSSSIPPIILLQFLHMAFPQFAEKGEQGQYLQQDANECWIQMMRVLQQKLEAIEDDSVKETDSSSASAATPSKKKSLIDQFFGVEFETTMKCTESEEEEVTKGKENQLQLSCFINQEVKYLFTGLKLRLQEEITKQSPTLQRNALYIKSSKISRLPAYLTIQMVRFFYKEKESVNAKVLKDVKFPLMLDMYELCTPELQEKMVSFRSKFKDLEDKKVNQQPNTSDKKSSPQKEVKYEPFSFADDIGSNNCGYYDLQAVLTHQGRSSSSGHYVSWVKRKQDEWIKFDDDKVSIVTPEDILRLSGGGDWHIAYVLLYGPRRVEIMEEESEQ
UniProt Q9Y5T5, whole entry, looked up: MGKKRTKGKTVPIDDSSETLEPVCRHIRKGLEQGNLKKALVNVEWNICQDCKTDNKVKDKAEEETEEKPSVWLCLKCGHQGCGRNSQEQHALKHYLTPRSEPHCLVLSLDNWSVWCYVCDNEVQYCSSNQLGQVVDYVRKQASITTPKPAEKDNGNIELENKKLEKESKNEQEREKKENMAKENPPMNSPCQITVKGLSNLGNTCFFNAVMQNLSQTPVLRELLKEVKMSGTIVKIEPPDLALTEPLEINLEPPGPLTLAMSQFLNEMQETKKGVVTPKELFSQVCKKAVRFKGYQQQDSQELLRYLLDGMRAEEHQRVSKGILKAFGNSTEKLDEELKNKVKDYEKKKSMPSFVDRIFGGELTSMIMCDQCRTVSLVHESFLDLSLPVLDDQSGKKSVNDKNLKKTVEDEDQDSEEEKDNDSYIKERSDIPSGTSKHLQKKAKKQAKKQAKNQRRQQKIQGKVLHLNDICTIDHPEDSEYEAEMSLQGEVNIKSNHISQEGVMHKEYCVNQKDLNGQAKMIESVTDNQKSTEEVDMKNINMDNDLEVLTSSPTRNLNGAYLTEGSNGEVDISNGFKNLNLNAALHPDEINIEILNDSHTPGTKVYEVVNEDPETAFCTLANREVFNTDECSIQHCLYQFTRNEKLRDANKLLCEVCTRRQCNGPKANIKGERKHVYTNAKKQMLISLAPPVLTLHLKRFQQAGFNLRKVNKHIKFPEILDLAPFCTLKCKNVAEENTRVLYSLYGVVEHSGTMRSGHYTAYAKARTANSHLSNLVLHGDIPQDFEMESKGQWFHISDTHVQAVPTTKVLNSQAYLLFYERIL
UniProt P22695: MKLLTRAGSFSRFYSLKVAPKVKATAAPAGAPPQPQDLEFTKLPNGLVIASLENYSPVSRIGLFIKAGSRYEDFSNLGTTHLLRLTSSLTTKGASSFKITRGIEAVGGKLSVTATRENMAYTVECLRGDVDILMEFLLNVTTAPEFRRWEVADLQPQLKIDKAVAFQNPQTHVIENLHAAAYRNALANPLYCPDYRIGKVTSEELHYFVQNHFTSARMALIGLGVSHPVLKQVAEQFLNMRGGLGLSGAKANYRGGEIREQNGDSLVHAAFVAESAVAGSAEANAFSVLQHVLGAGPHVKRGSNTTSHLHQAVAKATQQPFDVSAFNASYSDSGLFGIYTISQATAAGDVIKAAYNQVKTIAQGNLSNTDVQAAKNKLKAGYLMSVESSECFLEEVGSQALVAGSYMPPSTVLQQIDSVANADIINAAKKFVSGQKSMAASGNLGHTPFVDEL

Compound: Cc1cc(ccc1-c1ccccc1)C(=O)N1CCCN(CC1)C(=O)CCl [compound 10]
Assay: probe-labelled cysteine peptide fold change vs DMSO (competition) (log2 fold change); higher = less target engagement (more negative = stronger competition)
Conditions: THP-1, incubation time: 4 h
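Further: competitive profiling in live THP-1 cells: cysteine peptides tagged with an iodoacetamide desthiobiotin (IA-DTB) probe, intensity after compound treatment relative to DMSO-treated cells.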

Row | Target | probe-labelled cysteine peptide fold change (10 µM) | probe-labelled cysteine peptide fold change (50 µM)
1 | UHRF1_Q96T88_410_ECTIVPSNHYGPIPGIPVGTMWR (UniProt Q96T88) | 0.138 | 0.315
2 | USP25_Q9UHP3_336_DLHECLEAAMIEGEIESLHSENSGK (UniProt Q9UHP3) | 0.0488 | 0.0429
3 | USP19_O94966_656+659_LVCPVCAK (UniProt O94966) | -0.159 | -1.2
4 | UFC1_Q9Y3C8_116_ICLTDHFKPLWAR (UniProt Q9Y3C8) | -0.183 | -1.26
5 | UHRF1_Q96T88_170_KAPSRDEPCSSTSR (UniProt Q96T88) | -0.1 | -0.0594
6 | URB1_O60287_563_AVLLQVICLYQK (UniProt O60287) | 0.022 | 0.0828
7 | UNC13D_Q70J99_276_GQCHLQFQLIHK (UniProt Q70J99) | 0.000718 | -0.0494
8 | UCHL5_Q9Y5K5_88_QVINNACATQAIVSVLLNCTHQDVHLGETLSEFK (UniProt Q9Y5K5) | 0.143 | -0.205
9 | UGP2_Q16851_123_LNGGLGTSMGCK (UniProt Q16851) | -0.279 | -0.793
10 | USP15_Q9Y4E8_873_DKLDTLVDFPINDLDMSEFLINPNAGPCR (UniProt Q9Y4E8) | -0.122 | -0.144
11 | UIMC1_Q96RL1_661_VPSPGMEEAGCSR (UniProt Q96RL1) | -0.455 | -0.384
12 | USP14_P54578_257_CTESEEEEVTK (UniProt P54578) | -0.254 | -0.167
13 | USP16_Q9Y5T5_205_GLSNLGNTCFFNAVMQNLSQTPVLR (UniProt Q9Y5T5) | -0.823 | -0.481
14 | USP11_P51784_894_DGHYTTFACNK (UniProt P51784) | -0.051 | -0.393
15 | UHRF2_Q96PU4_14_TCTIEDVSR (UniProt Q96PU4) | 0.0523 | 0.0481
16 | UQCRC2_P22695_125_ENMAYTVECLR (UniProt P22695) | 0.0918 | 0.227
17 | UFSP2_Q9NUQ7_302_IDDNGWGCAYR (UniProt Q9NUQ7) | 0.25 | 0.505
18 | USP8_P40818_939_STVQCLTCHK (UniProt P40818) | -0.0503 | 0.133
19 | UHRF1BP1L_A0JNW5_81_THPICLSLDK (UniProt A0JNW5) | -0.0159 | -0.454

Part of the list above, comma-delimited.
Row,Target,probe-labelled cysteine peptide fold change (10 µM),probe-labelled cysteine peptide fold change (50 µM)
6,URB1_O60287_563_AVLLQVICLYQK (UniProt O60287),0.022,0.0828
7,UNC13D_Q70J99_276_GQCHLQFQLIHK (UniProt Q70J99),0.000718,-0.0494
8,UCHL5_Q9Y5K5_88_QVINNACATQAIVSVLLNCTHQDVHLGETLSEFK (UniProt Q9Y5K5),0.143,-0.205
9,UGP2_Q16851_123_LNGGLGTSMGCK (UniProt Q16851),-0.279,-0.793
